The values that follow come from PMC6015033.

No constants are given. Whether binding was seen depends on the method and setting. Some binding calls cover weakened binding; strength is not graded here.

The target in the assay is T1, MSMEG_6554, chain of the heterodimeric ABC exporter MSMEG_6553/54 (M. smegmatis) (M. smegmatis) (UniProt A0R6H8).
T1 sequence: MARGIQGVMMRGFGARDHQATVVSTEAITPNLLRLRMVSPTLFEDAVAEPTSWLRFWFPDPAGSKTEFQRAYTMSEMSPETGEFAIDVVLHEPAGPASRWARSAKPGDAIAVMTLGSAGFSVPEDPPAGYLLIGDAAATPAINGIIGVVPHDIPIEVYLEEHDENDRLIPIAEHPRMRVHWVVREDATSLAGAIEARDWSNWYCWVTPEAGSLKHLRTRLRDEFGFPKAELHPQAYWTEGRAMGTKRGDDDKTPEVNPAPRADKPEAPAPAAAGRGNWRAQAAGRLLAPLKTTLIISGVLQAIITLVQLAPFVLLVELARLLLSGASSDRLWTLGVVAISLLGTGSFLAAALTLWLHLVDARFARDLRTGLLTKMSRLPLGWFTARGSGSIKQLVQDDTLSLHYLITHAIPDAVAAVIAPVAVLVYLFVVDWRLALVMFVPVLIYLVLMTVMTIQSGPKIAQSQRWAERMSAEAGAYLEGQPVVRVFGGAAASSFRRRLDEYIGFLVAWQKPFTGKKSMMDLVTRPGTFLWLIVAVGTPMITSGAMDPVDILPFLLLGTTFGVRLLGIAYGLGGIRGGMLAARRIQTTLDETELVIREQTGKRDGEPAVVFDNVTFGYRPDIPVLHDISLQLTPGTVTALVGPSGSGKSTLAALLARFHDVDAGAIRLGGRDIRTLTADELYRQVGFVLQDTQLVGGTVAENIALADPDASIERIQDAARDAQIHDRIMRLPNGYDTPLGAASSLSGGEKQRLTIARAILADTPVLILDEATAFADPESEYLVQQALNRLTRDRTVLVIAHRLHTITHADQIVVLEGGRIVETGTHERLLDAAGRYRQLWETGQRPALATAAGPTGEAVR
Briefly: SEC; both purified.

B1: MSMEG_6553, chain of the heterodimeric ABC exporter MSMEG_6553/54 (M. smegmatis) (protein, UniProt A0R6H7 1-576)
chain: MIRTLIALVPADKRGTLGLYTVLTVLSVVIRAAGTVLLVPLVAALFGDTPQDAWPWLGWLTAATAAGWIVDTTTSRLGFDLGFAVLDHTQHDVADRMPNIRLDWLTAENTATARAAIASTGPELVGLVVNLLTPLIGAVLLPAAIAVALVAVSPPLGLAALAGVVVLLGAMWASNRLSRKADTVADETNSAFTERIIEFARTQQALRAARRVEPARSLVGDALGAQHGAGVRLLAMQIPGQLLFSLASQLALILLAGMATWLTVRGELSVPEAVAMIVVVARYLEPFTSLSELTPAIESTRGTLGRIRAVLDAPTLTAGDAAPADTKSAPRIEFDCVTFGYGDHPVLDDVSFVLEPGSTTAIVGPSGSGKSTILSLIAGLHQPTEGRVLIDGVDAASLDDESRRAATSVVFQQPYLFDGSIRDNILVGDPGADEDRLAAAVRLARVDELTARLPNGDASKVGEAGAALSGGERQRVSIARALVKPAPVLLVDEATSALDTENEAAVVDALTADLRHRTRVIVAHRLASIRHADRVLFLDGGRIVEDGTIDGLLAAGGRFDEFWRRQHEAADWQITH
On to B1, for which the binding result was “binds”.
